Laboratory results taken from the supplement of paper PMC12889115.
This is one part of the list. These are raw signals, not scaled to a control.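 Primary screen: polymyxin B was added at a level permeabilizing Salmonella outer membranes while sparing inner membranes. DMSO wells, both with and without polymyxin B, established maximum growth. Plate-to-plate variation meant each plate was ranked on its own, and the lowest-OD600 compounds were selected as hits.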

System: Salmonella enterica serovar Typhimurium SL1344
Assay: bacterial growth OD600 after 18 h with compound and polymyxin B; higher = more bacterial growth (less inhibition)
Details: 50 µM, Mueller-Hinton broth

Structure (SMILES)	bacterial growth OD600 (polymyxin B 1 µg/mL)	bacterial growth OD600 (polymyxin B 0.75 µg/mL)
COc1ccc(OC2CCN(C3CCCC3)CC2)c(C(=O)NCC(C)O)c1 (stereo unspecified)	1.06	–
COCc1ccc(CN2CCOc3ccc(C(O)C(c4ccccc4)c4ccccc4)cc3C2)o1 (stereo unspecified)	–	0.776
Cc1occc1C(=O)N1CCC(C2CCN(Cc3cccnc3)CC2)C1 (stereo unspecified)	–	1.01
CCS(=O)(=O)c1ncc(CN(C)Cc2cccc(OC)c2)n1CCc1ccccc1	–	0.531
C#Cc1ccc([C@@H]2C[C@H]3CN(Cc4cccc(Cl)c4)C(=O)[C@]34CCCN24)cc1	–	0.623
COc1ccc(CCCNC(=O)c2ccc(N3CCCOCC3)nc2)cc1	1.01	–
Cc1nc(CC(=O)N2CCCC(Nc3ccc(C)c(C)c3)C2)cs1 (stereo unspecified)	0.955	–
Cc1ccc(-c2nn(-c3cccc(F)c3)cc2CN(C)C(C)c2nccs2)o1 (stereo unspecified)	0.182	–
CCOc1ccc(CN2CCN(Cc3cccc(C(C)=O)c3)CC2CCO)cc1 (stereo unspecified)	0.827	–
CC1CCN(CC2(O)CCCN(Cc3cccc(F)c3F)C2=O)CC1 (stereo unspecified)	0.882	–
CCC1CN(Cc2ccc(OC)c(O)c2)Cc2cc(OC)ccc2O1 (stereo unspecified)	–	0.695
O=C(CCN1CCCO1)N1CCOC(Cc2ccccc2Cl)C1 (stereo unspecified)	0.975	–
COc1cccc(CCC2CCCN(Cc3ccncc3)C2)c1 (stereo unspecified)	–	0.842
O=C(CC1(c2cccc(F)c2)CC(=O)N(Cc2cccnc2)C1=O)N1CCN(C2CCCCC2)CC1 (stereo unspecified)	–	0.791
CC(C)(CNC(=O)c1cc(Cn2ccc3ccccc32)[nH]n1)N1CCOCC1	1	–
Cc1cccc(CNC(=O)c2ccc(OC3CCN(C(=O)C4CC4)CC3)cc2)c1	0.831	–

Given bar-delimited: 2 of the compounds above
Structure (SMILES) | bacterial growth OD600 (polymyxin B 1 µg/mL) | bacterial growth OD600 (polymyxin B 0.75 µg/mL)
C#Cc1ccc([C@@H]2C[C@H]3CN(Cc4cccc(Cl)c4)C(=O)[C@]34CCCN24)cc1 | – | 0.623
Cc1cccc(CNC(=O)c2ccc(OC3CCN(C(=O)C4CC4)CC3)cc2)c1 | 0.831 | –

Continuation:

Structure (SMILES)	bacterial growth OD600 (polymyxin B 1 µg/mL)	bacterial growth OD600 (polymyxin B 0.75 µg/mL)
COCCN1C(=O)CC(CC(=O)N2CCc3c(Cl)cccc3C2)(c2ccccc2F)C1=O (stereo unspecified)	–	0.596
CC(=O)c1ccc(C(=O)N(C)C2CCCN(CCc3ccccc3)C2)cc1 (stereo unspecified)	1.27	–
CO[C@H]1[C@H](NC(=O)c2ccccn2)c2ccccc2C12CCN(C(=O)CN1CCCC1=O)CC2	–	0.852
CN(CCc1ccccc1)Cc1nc(-c2ccc(C(F)(F)F)cc2)no1	0.971	–
CCC(=O)N(Cc1cc2c(OC)ccc(OC)c2nc1N1CCOCC1)CC1COc2ccccc2O1 (stereo unspecified)	–	0.005
O=C(c1ccccc1)N1CCCC(Nc2ccccc2)C1 (stereo unspecified)	0.82	–
Oc1ccc(CN2CC[C@@H](N3CCN(c4ccccc4F)CC3)[C@H](O)C2)cc1	–	0.81
CC(=O)N1CCC[C@H]1C(=O)NCc1cccnc1-n1cnc2ccccc21	0.895	–
COCCN1C(=O)CC(CC(=O)N2CCC(C(O)c3ccccc3)CC2)(c2ccccc2F)C1=O (stereo unspecified)	–	0.872
FC(F)(F)c1ccc(-c2cnnc(N3CCCC3c3nccs3)n2)cc1 (stereo unspecified)	–	0.695
O=C1CC(NC2CCOCC2)CN1CCc1ccccc1 (stereo unspecified)	1.02	–
CO[C@H]1[C@H](NC(=O)Cc2ccccc2)c2ccccc2C12CCN(Cc1ccc(NC(C)=O)cc1)CC2	–	1.03
COc1ccccc1-c1cn2c(C(=O)N(C)CCc3ccccn3)csc2n1	1.03	–
C=CCO[C@H]1[C@H](NC(=O)COC)c2ccccc2C12CCN(Cc1ccc(F)cc1Cl)CC2	–	0.952
CC(C)/C=C/C(=O)NCCN1Cc2ccccc2OC(c2ccccc2F)C1 (stereo unspecified)	–	0.006
